Reference: PubChem BioAssay AID1259315 (Drosophila RNAi Screening Center, 2017)
Shown is a random part of 418 reagents. 17 of them (4.1%) count as active. 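z-scores average two replicate plates; all hits raised ATP and none lowered it.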 The numbers tell different reagents against one gene apart. The record does not give: the amount of reagent.

- Aim: 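Fly genes whose loss alters cell survival under toxic zinc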 (primary screen)
- Cells: Drosophila S2R+ cells
- Reagents: long dsRNA against Drosophila genes
- Time to read-out: 5 days (4 days knock-down, then 1 day with zinc)
- Challenge: zinc chloride added to 15 mM final for 1 day
- Measurement: 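Luminescent measure of total cellular ATP as a survival proxy, read after 4 days of knock-down plus 1 day in 15 mM zinc chloride; z-score averaged across two replicate plates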
- Scale: mean ATP z-score: higher = more ATP, more cells surviving zinc
- Call rule: 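Hit when the mean ATP z-score exceeds 1.5 or falls below -1.5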

CG7300 #1 showed mean ATP z-score -0.399; inactive.
CG7300 #2 showed mean ATP z-score -0.354; inactive.
After knock-down of LManIII #1 the results were mean ATP z-score 1.2; inactive.
Depletion of LManIII #2 came out at: mean ATP z-score -0.336; inactive.
After knock-down of LManIII #3, the record shows mean ATP z-score -0.152; inactive.
Npc2b gave mean ATP z-score 0.268; inactive.
CG14777 #1 gave mean ATP z-score -0.0612; inactive.
CG14777 #2 showed mean ATP z-score -0.355; inactive.
After knock-down of CG1827 the results were mean ATP z-score -0.202; inactive.
Silencing of Hel25E #1 gave: mean ATP z-score 9.59; active.
Knock-down of Hel25E #2 resulted in: mean ATP z-score 7.47; active.
For Hel25E #3, the entry reads mean ATP z-score 9.93; active.
With knock-down of Vps25 #1, the record shows mean ATP z-score -0.255; inactive.
Depletion of Vps25 #2 resulted in: mean ATP z-score -0.274; inactive.
Silencing of Vps25 #3 gave: mean ATP z-score -0.223; inactive.
Vha36-3 #1 showed mean ATP z-score 0.248; inactive.
Vha36-3 #2 showed mean ATP z-score -0.111; inactive.
With knock-down of Acsf2 #1, the screen gave mean ATP z-score 0.00896; inactive.
With knock-down of Acsf2 #2 the results were mean ATP z-score -0.419; inactive.
